Experimental data: patent US11707557B2, “Compositions and devices incorporating water-insoluble therapeutic agents and methods of the use thereof” (COOK MEDICAL TECHNOLOGIES LLC, priority 2014, dated 2023)

Columns and labels:
[1] = lidocaine in PEG 300 with 25% w/w EGCG or tannic acid
[2] = system: pig skin
[3] = Liquid pharmaceutical excipients in gallate based pastes (solubility, viscosity score, pellet in water); assay type: physicochemical
Description: Various additional water/soluble/miscible liquids were explored (in addition to propylene glycol and polyethylene glycol) as excipients in gallate based pastes.
A viscosity score was established as follows: 1) Fluid—22 gauge needle; 2) Semi Viscous—18 gauge needle; 3) Viscous—16 gauge needle; 4) Waxy Pellet in water.

Solubility of lidocaine at 10% loading [3]	Compound	time of disintegration/dissolution of paste in PBS [1]	uptake in the 0-250 μm layer compared to Glaxal base and Plogel controls [2]	uptake in the 0-250 μm layer compared to the control formulations [2]
	CCN(CC)CC(=O)Nc1c(C)cccc1C [lidocaine]	3 days	higher uptake levels	higher levels of uptake
Yes	Tween 80			
